According to patent US5410031A, “Nucleoside cotransporter protein cDNA” (The Regents of the University of California Office of …, priority 1992, dated 1995):
At least one compound was matched to its structure with a doubt left.

Legend:
Format in all cases: cell-based, rabbit
[1] = test system: SNST1c (expressed Na+/nucleoside cotransporter); assay: Inhibition of [3H]uridine / radiolabeled nucleoside uptake in oocytes expressing SNST1c; conditions: 1 mM nucleoside, 0.6 μM [3H]uridine, Na+ containing buffer (FIG. 4B)
Procedure: Measurements were made of [^3 H] uridine uptake in oocytes expressing SNST1c (FIG. 4A and 4B). Uptakes were measured over 5 min in a buffer containing either 100 mM NaCl, choline chloride or LiCl as described by Coady et al., Arch. Biochem. Biophys. 283:130-134 (1990), incorporated by reference herein. [All of the solutions contained 2 mM KCL, 1 mM MgCl2, 1 mM CaCl2, 10 mM HEPES/Tris, pH 7.5 and either 100 mM NaCl (Na^+ transport buffer) or 100 mM choline-Cl (choline transport buffer). The uptake solutions contained radiolabeled substrate while the wash solutions contained nonradioactive substrate. Oocytes were injected with water as a control, or SNST1c cRNA (50 ng). […] Transport of substrate was assayed by placing 4-6 oocytes in 0.5 ml of radioactive uptake solution, preceded by a 30 min preincubation in a Na^+ -free (100 mM choline-Cl) solution when Na^+ -dependent transport was to be measured. […] The oocytes were individually dissolved in 1.0 ml of 10% SDS and assayed for radioactivity. All data are expressed as mean ±SD. […] Uptakes were measured in Na^+ containing buffer (Coady et al., supra) Oocytes were injected with water as a control, or SNST1c cRNA (50 ng) .
Uptake of radiolabeled nucleosides into Xenopus oocytes was measured in the presence or absence of Na^+ as described above in Example 1, and in the presence and absence of 1 mM phloridzin (Sigma, St. Louis, Mo.). […]

[2] = test system: SNST1c (chimeric Na+/nucleoside cotransporter SNST1); assay: Uptake of radiolabelled substrates in Xenopus oocytes expressing SNST1c; conditions: Xenopus oocytes injected with SNST1c RNA
Procedure: (§1) Oocyte injections. Xenopus oocytes were dissected and injected, and transport was measured as described below. Stage V and VI oocytes (Dumont, J. Morphol. 136:153-180 (1972)) from Xenopus laevis (Xenopus One, Ann Arbor, Mich.) were dissected and defolliculated as described by Hediger et al., Proc. Natl. Acad. Sci. USA 84:2634-2637 (1987) and Coady et al., Arch. Biochem. Biophys. 265:73-81 (1990), both of which are incorporated by reference herein. Briefly, oocytes were hand-dissected from ovarian tissue of adult female Xenopus laevis. […]
(§2) Na^+ /nucleoside transporter activity was assayed by measuring the Na^+ -dependent uptake by the chimeric construct, SNST1c. […] Therefore, the uptake of ^22 Na^+ in the presence of potential substrates was monitored.
(§3) Measurements were made of [^3 H] uridine uptake in oocytes expressing SNST1c (FIG. 4A and 4B). Uptakes were measured over 5 min in a buffer containing either 100 mM NaCl, choline chloride or LiCl as described by Coady et al., Arch. […] Transport of substrate was assayed by placing 4-6 oocytes in 0.5 ml of radioactive uptake solution, preceded by a 30 min preincubation in a Na^+ -free (100 mM choline-Cl) solution when Na^+ -dependent transport was to be measured. […] The oocytes were individually dissolved in 1.0 ml of 10% SDS and assayed for radioactivity. All data are expressed as mean ±SD. […]

[3] = test system: SNST1c (chimeric Na+/nucleoside cotransporter SNST1); assay: 22Na+ uptake in the presence of potential substrates in oocytes expressing SNST1c; conditions: SNST1c-injected oocytes
Procedure: as §1, §2, §3

Nc1ccn([C@H]2CC[C@@H](CO)O2)c(=O)n1 [dideoxycytidine]
inhibition of [3H]uridine transport by SNST1c [1]: inhibited

CC(C)(CO)[C@@H](O)C(=O)NCCC(=O)O [pantothenate]
transport of radiolabelled substrate by SNST1c [2]: none of these was transported

CC(=O)C(=O)O [pyruvate]
signal of 22Na+ uptake in the presence of potential substrate [3]: no signals
